PubChem BioAssay AID1259290 – Sanger Institute | 2017
The deposit covers 794 reagents; shown is a part drawn at random. 9 of all reagents (1.1%) count as active. 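Calls rest on knock-down alone, not drug synergy; synergy above 0.15 was grouped apart and does not affect calls.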 No viability above 1 is reported: the scale is capped. Not all columns of the deposit are shown. Not stated in the record: the amount of reagent, the time to read-out.

Assay: 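Identify kinases needed for colorectal cancer cell survival, with or without anchor drugs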 (primary screen)
System: human SNUC1 colorectal cancer cells
Reagent: siRNA pool against human genes
Conditions: anchor drugs BYL719 1 µM, cetuximab 5 µg/ml or trametinib 10 nM, or DMSO vehicle alone
Measured: 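Viability averaged over replicates and scaled to non-targeting siRNA, robust z-score with no drug, and synergy scores by drug for BYL719, cetuximab and trametinib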
Scale: viability z-score, siRNA alone: higher = more viable cells; low values mean essential gene; viability vs control, siRNA alone: higher = more viable cells
Call rule: 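a knock-down without drug scoring a robust z under -3 counts as essential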
Meaning of the calls: active = essential: knock-down alone cut viability (z below -3); inactive = no clear viability loss with knock-down alone

BRWD1
- viability z-score, siRNA alone: -2.02
- viability vs control, siRNA alone: 0.734
- Call: inactive

SNRK
- viability z-score, siRNA alone: -0.514
- viability vs control, siRNA alone: 0.869
- Call: inactive

CDK1
- viability z-score, siRNA alone: 0.936
- viability vs control, siRNA alone: 1
- Call: inactive

MSR1
- viability z-score, siRNA alone: -1.68
- viability vs control, siRNA alone: 0.764
- Call: inactive

AK2
- viability z-score, siRNA alone: 0.936
- viability vs control, siRNA alone: 1
- Call: inactive

MAP3K13
- viability z-score, siRNA alone: -0.606
- viability vs control, siRNA alone: 0.861
- Call: inactive

PIK3R1
- viability z-score, siRNA alone: 0.616
- viability vs control, siRNA alone: 0.971
- Call: inactive

DNMT3A
- viability z-score, siRNA alone: -2.81
- viability vs control, siRNA alone: 0.662
- Call: inactive

CDK19
- viability z-score, siRNA alone: 0.157
- viability vs control, siRNA alone: 0.93
- Call: inactive

EPHA2
- viability z-score, siRNA alone: -0.187
- viability vs control, siRNA alone: 0.899
- Call: inactive

TSSK3
- viability z-score, siRNA alone: 0.841
- viability vs control, siRNA alone: 0.991
- Call: inactive

STK40
- viability z-score, siRNA alone: 0.478
- viability vs control, siRNA alone: 0.959
- Call: inactive

BRSK1
- viability z-score, siRNA alone: 0.596
- viability vs control, siRNA alone: 0.969
- Call: inactive

RIOK1
- viability z-score, siRNA alone: 0.601
- viability vs control, siRNA alone: 0.97
- Call: inactive

SMG1
- viability z-score, siRNA alone: 0.00304
- viability vs control, siRNA alone: 0.916
- Call: inactive

KCNH2
- viability z-score, siRNA alone: -0.0431
- viability vs control, siRNA alone: 0.912
- Call: inactive

2 successive reagents already listed, quoted:
SMG1
- viability z-score, siRNA alone: 0.00304
- viability vs control, siRNA alone: 0.916
- Call: inactive

KCNH2
- viability z-score, siRNA alone: -0.0431
- viability vs control, siRNA alone: 0.912
- Call: inactive

Additional records:
CAMK2D
- viability z-score, siRNA alone: -0.473
- viability vs control, siRNA alone: 0.873
- Call: inactive

GUK1
- viability z-score, siRNA alone: -1.9
- viability vs control, siRNA alone: 0.745
- Call: inactive

PKMYT1
- viability z-score, siRNA alone: -0.0937
- viability vs control, siRNA alone: 0.907
- Call: inactive

SRGAP3
- viability z-score, siRNA alone: 0.585
- viability vs control, siRNA alone: 0.968
- Call: inactive

MAP3K12
- viability z-score, siRNA alone: 0.936
- viability vs control, siRNA alone: 1
- Call: inactive

PRKACB
- viability z-score, siRNA alone: 0.0339
- viability vs control, siRNA alone: 0.919
- Call: inactive

EPHA1
- viability z-score, siRNA alone: 0.359
- viability vs control, siRNA alone: 0.948
- Call: inactive

STK25
- viability z-score, siRNA alone: 0.825
- viability vs control, siRNA alone: 0.99
- Call: inactive

PIM3
- viability z-score, siRNA alone: -0.383
- viability vs control, siRNA alone: 0.881
- Call: inactive

UCK2
- viability z-score, siRNA alone: 0.936
- viability vs control, siRNA alone: 1
- Call: inactive

IPPK
- viability z-score, siRNA alone: -0.353
- viability vs control, siRNA alone: 0.884
- Call: inactive

CSNK2A2
- viability z-score, siRNA alone: -2.23
- viability vs control, siRNA alone: 0.714
- Call: inactive
